According to PubChem BioAssay AID540256 (National Center for Advancing Translational Sciences (NCATS), 2011):
Where “and” joins values, the source holds several entries; their conditions need not be identical. Identical values can stand only once. Hit rate of the full screen: of about 300,000 compounds, about 3,700 (1.2%) were called active. Inconclusive means that the source gave no clear call. Such entries were picked first, then a sample of the others. Calls follow the shape of the full dose curve; tested in HEK293 cells. Where the call is inconclusive, the potency comes from a doubtful curve fit.

Experiment: qHTS for Inhibitors of binding or entry into cells for Lassa Virus; also: nearly all actives have a fitted effect of over 50% in size
Settings: Lassa virus pseudotype entry inhibition, cell reporter; activity change, negative = inhibition: at 37.9 µM (top of the series) unless noted
% is scaled to controls: 0 for no effect and ±100 for the full control effect; potency is read from the fitted curve at half-maximal effect.

Q: Which Potency does the source give for `O=C(Nc1ccc(N2CCN(C(=O)c3ccco3)CC2)cc1)c1ccccc1Br` here?
A: The Potency was inconclusive: 8.91 µM [inhibitor, partial curve, poor fit].

Q: For `Cc1nn(C(C)(C)C)c(OC(=O)C(C)(C)C)c1Sc1ccccc1`, which Potency is on record?
A: Its Potency is inconclusive: 5.62 µM [activator, single point].

Q: With `CC(C)(C)c1ccc(C(=O)Nc2ccc(F)cc2)s1` as the compound, how does the Potency read?
A: The Potency was inconclusive: 11.2 µM [inhibitor, partial curve, poor fit].

Q: For `Clc1ccc(OCc2nnc(SCc3nc4ccccc4[nH]3)n2Cc2ccco2)cc1`, which Potency is on record?
A: Its Potency is inconclusive: 29.1 µM [inhibitor, single point].

Q: With `C=CCn1c(Cc2ccccc2)nc2c(cnn2-c2ccccc2)c1=O` as the compound, how does the Potency read?
A: The Potency was inconclusive: 10 µM [inhibitor, partial curve, poor fit].

Q: Which Potency does the source give for `COc1cc(-c2nnc(SCc3c(F)cccc3Cl)o2)cc(OC)c1OC` here?
A: The Potency was inconclusive: 35.5 µM [inhibitor, single point].

Q: For `NC(=O)c1cc(-c2ccccc2)sc1NC(=O)CN1CCCCC1`, which Potency is on record?
A: Its Potency is inconclusive: 11.2 µM [inhibitor, single point].

Q: For `O=c1c2c(-c3cccs3)csc2ncn1-c1ccccc1`, which “activity change, negative = inhibition” value is on record?
A: The value was inactive: 14.9%.

Q: With `COc1ccc(/C=N/NC(=O)c2cccnc2)cc1COc1ccc(NC(C)=O)cc1` as the compound, how does the “activity change, negative = inhibition” value read?
A: The value was inactive: -10.1% [at 46.1 µM].

Q: Which Potency does the source give for `CN(C)S(=O)(=O)c1ccc(C(=O)NNc2nc(-c3ccccc3)c3cc(Br)ccc3n2)cc1` here?
A: The Potency was inconclusive: 6.31 µM [inhibitor, partial curve, poor fit].

Q: For `O=C1C2C(c3ccccc3)C=CC(c3ccccc3)C2C(=O)N1c1cccnc1` (stereo unspecified), which “activity change, negative = inhibition” value is on record?
A: The value was inactive: -0.206%.

Q: With `CCCCn1nc(CC(=O)O)c2ccccc2c1=O` as the compound, how does the “activity change, negative = inhibition” value read?
A: Its value is inactive: 13.8%.

Q: For `CCn1c(CNc2ccccc2Cl)nnc1SCC(=O)OC1CCCCC1`, which Potency is on record?
A: Its Potency is inconclusive: 29.1 µM [inhibitor, single point].

Q: With `O=C(Nc1ccccc1N1CCOCC1)C1CCCCN1S(=O)(=O)c1ccccc1` (stereo unspecified) as the compound, how does the Potency read?
A: The Potency was inconclusive: 35.5 µM [inhibitor, single point].

Q: With `CCC(=O)N1CCc2cc(S(=O)(=O)CCC(=O)N(C)c3ccc(OC)cc3OC)ccc21` as the compound, how does the Potency read?
A: The Potency was inconclusive: 20 µM [inhibitor, partial curve, poor fit].

Q: With `Cc1cccc(CS(=O)(=O)Cc2ccc(C(=O)NCc3cccs3)o2)c1` as the compound, how does the Potency read?
A: Its Potency is inconclusive: 7.94 µM [inhibitor, partial curve, poor fit].

Q: For `COc1cc2c(cc1NC(=O)c1cccc(S(=O)(=O)N(C)C)c1)oc1ccccc12`, which “activity change, negative = inhibition” value is on record?
A: The value was inactive: -36.8%.

Q: Which Potency does the source give for `COc1cccc(NC(=O)C(Cc2ccccc2)n2cccc2)c1` (stereo unspecified) here?
A: The Potency was inconclusive: 35.5 µM [inhibitor, single point].

Q: Which “activity change, negative = inhibition” value does the source give for `CCOC(=O)C1CCCN(Cc2nc(N)nc(Nc3ccc(Cl)cc3)n2)C1` (stereo unspecified) here?
A: The value was inactive: -7.68%.

Q: For `COC(=O)Cn1c(=O)c2c(nc3n2CCN3c2ccc(F)cc2)n(C)c1=O`, which “activity change, negative = inhibition” value is on record?
A: The value was inactive: -21.2% [at 46.1 µM].

Q: For `CC1=C(C(=O)Nc2ccc3[nH]ncc3c2)C(c2ccc(F)cc2)N=C(c2ccc(C(F)(F)F)nc2)N1` (stereo unspecified), which Potency is on record?
A: Its Potency is inconclusive: 35.3 µM [inhibitor, single point].

Q: With `CC(Oc1ccc(Cl)cc1Cl)C(=O)Nc1ncccn1` (stereo unspecified) as the compound, how does the Potency read?
A: Its Potency is inconclusive: 22.4 µM [activator, single point].

Q: For `CSc1ccc(CNC(=O)c2ccc(NC(=O)c3nsc4ccccc34)cc2)cc1`, which “activity change, negative = inhibition” value is on record?
A: The value was inactive: 6.49% [at 46.1 µM].

Q: With `COc1cccc(-n2c(SCC(=O)c3ccc(Cl)cc3)nc3c([nH]c4ccccc43)c2=O)c1` as the compound, how does the Potency read?
A: The Potency was inconclusive: 3.98 µM [inhibitor, single point].

Q: For `CCOC(=O)c1ccc(NC(=O)N2CCOCC2)cc1`, which Potency is on record?
A: The Potency was inconclusive: 8.91 µM [activator, partial curve, poor fit].

Q: Which Potency does the source give for `CCOc1ccc(/C(C)=N/N2C(=O)C(CC(=O)Nc3ccc(OC)cc3[N+](=O)[O-])SC2=Nc2cccc(C)c2C)cc1` (stereo unspecified) here?
A: Its Potency is “inactive and inconclusive: 2.24 µM [inhibitor, partial curve, poor fit]”.

Q: For `CCOC(=O)c1c(C)nc2c(c1-c1ccccc1)C(=O)c1ccccc1-2`, which Potency is on record?
A: Its Potency is inconclusive: 29.1 µM [inhibitor, single point].

Q: For `C/C(CCc1ccccc1)=N\NC(=O)CCc1ccccc1`, which Potency is on record?
A: Its Potency is inconclusive: 2.59 µM [inhibitor, full curve].

Q: With `Cc1ccc2cc(CCNC(=O)c3ccc(S(=O)(=O)N4CCCCC4)cc3)c(=O)[nH]c2c1` as the compound, how does the Potency read?
A: The Potency was inconclusive: 7.08 µM [inhibitor, full curve, poor fit].

Q: With `Cc1ccc(-n2c(SCC(=O)O)nc3sc4c(c3c2=O)CCCC4)cc1` as the compound, how does the Potency read?
A: Its Potency is inconclusive: 0.631 µM [inhibitor, partial curve, poor fit].

Q: Which Potency does the source give for `CCN(CC)S(=O)(=O)c1ccc(C(=O)NCCSc2c[nH]c3ccccc23)cc1` here?
A: The Potency was active: 25.9 µM.

Q: Which Potency does the source give for `CN(CC(=O)Nc1ccc(Cl)c(C(F)(F)F)c1)C(=O)Cc1ccsc1` here?
A: The Potency was inconclusive: 8.91 µM [inhibitor, partial curve, poor fit].

Q: For `COc1cc2c(cc1OC)CN(C1CCC(C(C)(C)C)CC1)CC2` (stereo unspecified), which “activity change, negative = inhibition” value is on record?
A: The value was inactive: -0.631% [at 46.1 µM].

Q: Which “activity change, negative = inhibition” value does the source give for `O=NN1CCN(c2ccncc2S(=O)(=O)N2CCCCC2)CC1` here?
A: The value was inactive: 8.08%.

Q: With `COc1ccc(NC(=O)CN(c2ccc(C)cc2)S(=O)(=O)c2cccc3nonc23)cc1OC` as the compound, how does the “activity change, negative = inhibition” value read?
A: The value was inactive: -20.6% [at 46.1 µM].

Q: For `CCOc1ccc(NC(=O)CN(c2ccc(Cl)cc2C)S(=O)(=O)c2ccccc2)cc1`, which Potency is on record?
A: Its Potency is inconclusive: 15.8 µM [inhibitor, partial curve, poor fit].

Q: With `COc1ccc(N2CC(NC(=O)c3ccc4c(c3)OCO4)CC2=O)cc1` (stereo unspecified) as the compound, how does the “activity change, negative = inhibition” value read?
A: Its value is inactive: 0.501% [at 46.1 µM].

Q: With `CCCCn1c(=N)n(CC(O)COc2ccc(C)cc2)c2ccccc21` (stereo unspecified) as the compound, how does the Potency read?
A: The Potency was inconclusive: 20.6 µM [inhibitor, partial curve, poor fit].

Q: Which Potency does the source give for `Clc1ccc(-c2nc(NCCCN3CCOCC3)c3ccccc3n2)cc1` here?
A: The Potency was inconclusive: 17.8 µM [inhibitor, single point].

Q: Which Potency does the source give for `Cc1cc(=O)oc2c(C)c(OCC(=O)NC3CCN(Cc4ccccc4)CC3)ccc12` here?
A: Its Potency is inconclusive: 5.62 µM [activator, single point].

Q: Which Potency does the source give for `CC1CCc2nc3ncn(Cc4ccccc4F)c(=O)c3cc2C1` (stereo unspecified) here?
A: The Potency was inconclusive: 22.4 µM [inhibitor, single point].
